Measured values published in PubChem BioAssay AID651640 (Broad Institute, 2012).
The campaign covered roughly 350,000 compounds. About 6,000 (1.7%) were called active. Inconclusive means that the source gave no clear call. Such entries were picked first, then a sample of the others. Rule as the data show it: active = CPE inhibition above about 20% (passing the limit was not always enough); inconclusive = no clear call, values can overlap the other calls; tested in BHK-21 cells.

Assay: protection of cells from dengue 2 killing – plate reader, single concentration, primary screen (AID 651640);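 also: 0% = median of neutral control wells and 100% = median of positive control wells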
Details: DENV2-infected cells, cytopathic effect rescue, at 9.99 µM, stronger effect = higher value

SMILES | CPE inhibition
COc1ccc(NC(=O)Nc2ccc3c(c2)CC(=O)N([C@H](C)CO)C[C@H](C)[C@@H](CN(C)S(=O)(=O)c2cn(C)cn2)O3)cc1 | active: 21.6%
COc1ccccc1C(=O)Nc1onc(C)c1C#N | inactive: -1.33%
C[C@@H]1CCCCO[C@@H](CN(C)S(C)(=O)=O)[C@@H](C)CN([C@H](C)CO)C(=O)c2cc(NC(=O)Nc3cccc4ccccc34)ccc2O1 | inconclusive: 65.3%
CCc1nc(N2CCN(C(C)=O)CC2)c2c3c(sc2n1)CCCC3 | inconclusive: 57.2%
CCCN1C[C@H](C)[C@@H](OC)CN(C)C(=O)c2cc(NC(=O)c3cccc(F)c3)ccc2OC[C@H]1C | inactive: -10.2%
Cc1noc(C)c1NC(=O)Nc1ccc2c(c1)CC(=O)N([C@@H](C)CO)C[C@H](C)[C@H](CN(C)C)O2 | active: 21.1%
CCOc1ccc2[nH]c(C)c(CN(C)C)c(=O)c2c1 | inconclusive: 22.3%
N#C[C@H]1[C@@H](c2ccccc2-c2ccc(F)cc2)[C@@H](CO)N1C(=O)NC1CCCC1 | inactive: 2.55%
COc1ccccc1NC(=O)N1CC(=O)N2[C@H](C1)[C@H](c1ccc(-c3ccc(F)cc3)cc1)[C@@H]2CO | inconclusive: 41.1%
C=C1CCN([C@@H](Cc2ccccc2)C(=O)Nc2ccc(OC)cc2)S(=O)(=O)c2ccccc21 | inconclusive: 32%
O=S(=O)(O)c1ccc(NN=Cc2ccccc2O)cc1 | inactive: 10.8%
COc1cccc(CNC(=O)C[C@H]2CC[C@H]3[C@H](COc4ccc(NC(C)=O)cc4C(=O)N3C)O2)c1 | inconclusive: 43.8%
C[C@H](CO)N1C[C@H](C)[C@@H](CN(C)S(=O)(=O)c2cn(C)cn2)OCCCC[C@H](C)Oc2ccc(NC(=O)NC3CCCCC3)cc2C1=O | inconclusive: 24.1%
O=C(N/N=C/c1ccc2c(c1)OCO2)c1ccc(Cl)cc1Cl | inactive: -1.81%
O=C(NCC1CCCCC1)c1ccc2nc([C@@H]3O[C@H](CO)[C@H](O)[C@H](O)[C@H]3O)[nH]c2c1 | inconclusive: 53.4%
COc1ccc(C=NNC(=O)c2ccccc2NS(=O)(=O)c2cccs2)cc1O | inconclusive: 20.5%
C[C@@H]1CN([C@@H](C)CO)C(=O)c2cc(NC(=O)c3ccncc3)ccc2O[C@@H](C)CCCCO[C@H]1CN(C)C | inconclusive: 56.3%
COC(=O)c1ccc2nc(-c3cccc(Br)c3)c(Cc3ccccc3OC)n2c1 | inactive: -3.83%
Cc1noc(C)c1NC(=O)Nc1ccc2c(c1)C(=O)N([C@H](C)CO)C[C@@H](C)[C@@H](CN(C)C(=O)Nc1c(C)noc1C)O2 | inconclusive: 39.6%
CCCNC(=O)C1(C)CCN(C(=O)c2cc(C(C)(C)C)nn2C)C1 (stereo not given) | inconclusive: 46.7%
C[C@H](NC(=O)C[C@H]1CC[C@@H](NC(=O)Cc2ccccn2)[C@H](CO)O1)c1ccccc1 | inactive: 0.184%
CN(C)S(=O)(=O)Oc1ccsc1C(=O)Nc1ccc(C(F)(F)F)cc1 | inactive: -2.77%
CC(C)NC(=O)Nc1ccc2c(c1)CC(=O)N([C@H](C)CO)C[C@H](C)[C@H](CN(C)Cc1ccc(-c3ccccc3)cc1)O2 | active: 28%
Cc1cccc(NC(=O)CCc2nc3sc4c(c3c(=O)[nH]2)CCCC4)n1 | inactive: -0.381%

5 entries drawn at random from the list so far, as already listed:
SMILES | CPE inhibition
C[C@H](CO)N1C[C@H](C)[C@@H](CN(C)S(=O)(=O)c2cn(C)cn2)OCCCC[C@H](C)Oc2ccc(NC(=O)NC3CCCCC3)cc2C1=O | inconclusive: 24.1%
COc1ccc(NC(=O)Nc2ccc3c(c2)CC(=O)N([C@H](C)CO)C[C@H](C)[C@@H](CN(C)S(=O)(=O)c2cn(C)cn2)O3)cc1 | active: 21.6%
Cc1cccc(NC(=O)CCc2nc3sc4c(c3c(=O)[nH]2)CCCC4)n1 | inactive: -0.381%
N#C[C@H]1[C@@H](c2ccccc2-c2ccc(F)cc2)[C@@H](CO)N1C(=O)NC1CCCC1 | inactive: 2.55%
CCc1nc(N2CCN(C(C)=O)CC2)c2c3c(sc2n1)CCCC3 | inconclusive: 57.2%

The list goes on.

SMILES | CPE inhibition
COC(=O)[C@@]12C[C@@H](CC(=O)NCCCCc3ccccc3)C(=O)N(CCc3ccc(OC)c(OC)c3)C1=CCC(C)(C)C2 | inconclusive: 25.9%
NC1=NN=C(c2ccc3c(c2)OCCO3)CS1 | inactive: -7.94%
CCc1cccc2c1NC(=O)C2=O | inconclusive: 45.6%
OC[C@@H]1[C@@H](c2ccccc2)C2(CN(CC3CC3)C2)N1Cc1ccc(F)cc1 | active: 23.4%
COc1ccc(S(=O)(=O)N(C)C[C@H]2Oc3cc(C#CC4CC4)ccc3S(=O)(=O)N([C@H](C)CO)C[C@H]2C)cc1 | inconclusive: 21.2%
Nc1c(C(=O)CSc2nc(-c3ccccc3)cs2)c(=O)[nH]c(=O)n1C1CC1 | inconclusive: 62.3%
Cc1nn(-c2ccccc2)c(N2CCCC2)c1/C=N/NC(=S)Nc1ccccc1C(F)(F)F | inconclusive: 45.9%
Cc1noc(C)c1NC(=O)N(C)C[C@@H]1Oc2ccc(NC(=O)Nc3ccccc3)cc2C(=O)N([C@H](C)CO)C[C@@H]1C | inconclusive: 24.6%
CCCCCCCNC(=O)C1(CC2CC(c3cccc(Br)c3)=NO2)CCN(C(=O)CCCCCBr)CC1 (stereo not given) | inactive: -6.19%
CCC(=O)N1CC[C@@H]2[C@@H](CO)Nc3ccc(C#Cc4ccccc4)cc3[C@@H]21 | inconclusive: 29.6%
C[C@@H]1CN([C@@H](C)CO)C(=O)c2cc(NS(C)(=O)=O)ccc2O[C@@H](C)CCCCO[C@H]1CN(C)C(=O)c1ccncc1 | active: 68.8%
CN(Cc1ccccc1)C(=O)c1cccc(NC(=O)Cc2ccc(NC(=O)C3CCCN(C(=O)C4CC4)C3)cc2)c1 (stereo not given) | inconclusive: 58.5%
Cc1noc(C)c1S(=O)(=O)N(C)C[C@@H]1OCCCC[C@@H](C)Oc2ccc(NC(=O)NC3CCCCC3)cc2C(=O)N([C@@H](C)CO)C[C@H]1C | inconclusive: 54.6%
CCOC(=O)Cn1c(C)[n+](CC(=O)c2ccccc2)c2ccccc21 | inactive: -1.7%
COc1cccc(C(=O)N2C[C@@H]3[C@H](c4ccccc42)[C@H](CO)N3Cc2cccnc2)c1 | inconclusive: 22.5%
C/C=C/c1ccc([C@@H]2[C@@H](CNC(=O)C3CC3)N(C(=O)CC)[C@H]2CO)cc1 | active: 25.7%
COc1ccc([N+](=O)[O-])cc1NC(=O)CCN1CCN(C)CC1 | inactive: 11.5%
CC(/C=C1\SC(=O)N(CC(=O)Nc2ccc(O)cc2)C1=O)=C\c1ccccc1 | inactive: -1.48%
N#C/C(=C\c1ccccc1Cl)C(=O)Nc1ccccn1 | inconclusive: 20.9%
Cc1c(C(=O)N2CCCCCC2)c(S(=O)(=O)Nc2ccccc2F)c(C)n1C | inconclusive: 33.4%
O=C(Nc1nc(-c2cccnc2)cs1)c1cccc([N+](=O)[O-])c1 | inconclusive: 22.1%
C=CCNc1ncnc2sc(SC)nc12 | inconclusive: 27%
COc1ccc(CN(C)C[C@@H]2Oc3ccc(NC(=O)Nc4cccc5ccccc45)cc3CC(=O)N([C@H](C)CO)C[C@@H]2C)cc1 | inactive: -3.26%
C[C@H](CO)N1C[C@H](C)[C@@H](CN(C)C(=O)CN(C)C)Oc2ncc(C#C[C@@H](C)O)cc2C1=O | inactive: 18.8%

SMILES | CPE inhibition
CCCN1CCN(CCCNC(=O)c2cc3c(=O)[nH]c4ccc(C)cc4c3s2)CC1 | inconclusive: 46.3%
CCCNC(=O)N1[C@H](CO)[C@@H](c2ccc(C3=CCCC3)cc2)[C@@H]1CNC(=O)CC | inconclusive: 63.2%
C[C@H](CO)N1C[C@H](C)[C@@H](CN(C)S(=O)(=O)c2ccccc2)OCCCC[C@H](C)Oc2ccc(NC(=O)Nc3ccc(C(F)(F)F)cc3)cc2C1=O | inconclusive: 40.4%
COC(=O)C1=C(C)N(Cc2cccc(C(F)(F)F)c2)C(=NCc2ccc3c(c2)OCO3)NC1c1ccc(F)cc1 (stereo not given) | inconclusive: 45.5%
C[C@H]1CN([C@@H](C)CO)C(=O)c2cc(NC(=O)C3CC3)ccc2O[C@H]1CN(C)Cc1ccc(C(F)(F)F)cc1 | active: 26.6%
COc1ccccc1NC(=O)N[C@H]1CC[C@@H](CCNS(=O)(=O)c2ccc(Cl)cc2)O[C@H]1CO | active: 20.5%
COc1ccc(/C=N/NC(=O)c2nc(-c3ccccc3)n(-c3ccccc3)n2)cc1OC | active: 38.4%
CCC(=O)N1C[C@H](C)[C@@H](OC)CN(C)C(=O)c2cc(NC(=O)CC(F)(F)F)ccc2OC[C@H]1C | inactive: 6.38%
C/C(=N\NC(=O)c1ccco1)c1ccc(C(=O)O)s1 | inconclusive: 30.2%
CCCc1cn(CC[C@H]2CC[C@@H](NC(=O)Nc3ccccc3F)[C@H](CO)O2)nn1 | inactive: 3.79%
C[C@H]1CN([C@@H](C)CO)C(=O)c2cc(NC(=O)c3ccncc3)ccc2O[C@H]1CN(C)C(=O)NC1CCCCC1 | inactive: -15.1%
O=C(NCC(c1ccco1)N1CCCC1)c1ccccc1Sc1ccc(C(F)(F)F)cc1[N+](=O)[O-] (stereo not given) | inconclusive: 22.2%
CCCNC(=O)[C@H]1[C@H](CO)[C@H]2Cn3c(ccc(C4=CCCC4)c3=O)[C@H]2N1CCC(F)(F)F | inconclusive: 71.2%
CC(C)N(C)c1ncnc2c1ncn2[C@H]1CN(CCc2ccccc2)C[C@@H](CO)O1 | inconclusive: 25.8%
N#C[C@@H]1[C@H](c2ccc(-c3ccccc3F)cc2)[C@H](CO)N1C(=O)C1CC1 | active: 87.2%
C[C@@H]1CN([C@@H](C)CO)S(=O)(=O)c2ccc(-c3cccnc3)cc2O[C@@H]1CN(C)Cc1ccncc1 | inactive: 9.55%
CCC(=O)N1CC[C@H]2[C@H](CO)Nc3ccc(C#Cc4cccnc4)cc3[C@H]21 | inconclusive: 20.5%
COc1cccc(CNS(=O)(=O)c2ccccc2Br)c1 | inconclusive: 38%
C[n+]1c(-c2ccc(C=NNC(=O)c3ccc(C(=O)NN=Cc4ccc(-c5cn6ccccc6[n+]5C)cc4)cc3)cc2)cn2ccccc21 | inconclusive: 50.2%
CC(=O)N1CCc2c(sc(NC(=O)C3COc4ccccc4O3)c2C(N)=O)C1 (stereo not given) | inactive: -2.76%
CCN(CC(=O)NCc1ccco1)S(=O)(=O)c1ccc(OC)cc1 | inconclusive: 31.1%
C[C@@H]1CN([C@H](C)CO)C(=O)c2cc(NC(=O)C3CCCCC3)ccc2O[C@@H](C)CCCCO[C@@H]1CN(C)Cc1ccncc1 | inconclusive: 60.1%
